Out of some 320,000 compounds screened, about 22,000 (6.9%) were called active. Inconclusive means that the source gave no clear call. Such entries were picked first, then a sample of the others. The call rests on the fitted dose curve; in most records, active means well fitted inhibition curve with a large enough effect; inconclusive means small, poorly fitted or top-dose-only effect, or another doubt; inactive means no such curve, though single readings can be large or run the other way. Where the call is inconclusive, the potency comes from a doubtful curve fit.
Assay: Primary qHTS for delayed death inhibitors of the malarial parasite plastid, 96 hour incubation
Conditions: P. falciparum luciferase reporter growth; series mostly up to 28.7 µM; activity change, negative = inhibition: at the top concentration
In short: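 Compounds incubated with erythrocytes infected by luciferase-expressing P. falciparum (2% hematocrit, 0.05% parasitemia final) for 96 hours, 37 C in 5% CO2. Growth inhibition scored as decreased luciferase luminescence.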
On the % scale 0 is the no-effect control and ±100 the full control effect; potency means the concentration at half of the fitted maximal effect.

Structure (SMILES) | Potency | activity change, negative = inhibition
COc1ccc(C(c2nnnn2Cc2cccs2)N2CCN(c3ccc(F)cc3)CC2)cc1OC (stereo not given) | active: 13.1 µM | –
CCCN[C@@H]1C(=O)N2C(C(=O)OCCC)=C(C)CS[C@H]12 | inconclusive: 18.5 µM [inhibitor, single point] | –
O=C(Nc1ccc(Cl)cc1)N1CCN(c2ncccn2)CC1 | inconclusive: 1.85 µM [inhibitor, full curve, poor fit] | –
COc1cccc2cc(C(C)N(CCCN3CCOCC3)C(=S)Nc3cc(C)ccc3C)oc12 (stereo not given) | inconclusive: 8.28 µM [inhibitor, single point] | –
O=C(NCCCN1CCCC1=O)c1ccc(CNS(=O)(=O)c2ccc(F)cc2)cc1 | inconclusive: 0.586 µM [inhibitor, full curve, poor fit] | –
Cc1ccc(Cl)cc1N1CCN(C(=O)COc2ccc(S(=O)(=O)NC(C)C)cc2)CC1 | inconclusive: 18.5 µM [inhibitor, single point] | –
O=C(NCc1ccc2c(c1)OCO2)c1cc([N+](=O)[O-])ccc1N1CCCCC1 | inconclusive: 18.5 µM [inhibitor, single point] | –
CCOC(=O)[C@@H]1[C@H]2COc3cc(OC)ccc3[C@@H]2N2C(=O)N(c3ccc(F)cc3)C(=O)[C@]12C | inconclusive: 11.7 µM [inhibitor, single point] | –
COc1ccc(C(=O)NC(=S)NNC(=O)c2ccc3ccccc3n2)cc1 | inconclusive: 18.5 µM [inhibitor, partial curve, poor fit] | –
CC(C)C[C@@]12C(=O)N(c3cccc(F)c3)C(=O)N1[C@H](c1ccc(Br)cc1)[C@@H]1C(=O)N(C(C)(C)C)C(=O)[C@@H]12 | active: 5.22 µM | –
COc1ccccc1NC(=O)CCCN1C(=O)C2CC=CCC2C1=O (stereo not given) | active: 6.57 µM | –
N/C(=N\OC(=O)c1ccncc1)c1cccc([N+](=O)[O-])c1 | – | inactive: -15.6%
Cc1nc(-c2cccnc2)sc1C(=O)Nc1ccc(C(F)(F)F)cc1 | – | inactive: 0%
O=C(/C=C/c1ccco1)NCc1ccccn1 | – | inactive: 24.5%
CC(=O)N1CCN(C(=O)c2cc(=O)c3ccccc3o2)CC1 | – | inactive: 16.5%
CCc1ccc(/C=C(/C#N)C(N)=S)cc1 | – | inactive: 13.8%
O=C(c1ccco1)N1CCN(C(=O)c2ccccc2OCc2ccc(Cl)cc2)CC1 | – | inactive: -14.9%
COc1ccc(/C=N/c2sc3c(c2C#N)CCN(Cc2ccccc2)C3)c(O)c1 | inconclusive: 8.28 µM [inhibitor, partial curve, poor fit] | –
CCOC(=O)C1=C(C)N=c2s/c(=C\c3cccn3C)c(=O)n2C1c1cccc(OC)c1OC (stereo not given) | inconclusive: 2.62 µM [inhibitor, full curve] | –
O=C(CNc1ccccc1)c1ccc([N+](=O)[O-])cc1 | inconclusive: 10.4 µM [inhibitor, partial curve, poor fit] | –
Cc1nc(C)c(-c2csc(Nc3cccc(O)c3)n2)s1 | inconclusive: 0.262 µM [inhibitor, partial curve, poor fit] | –
COc1ccc(CNC(=O)Cc2ccc(NC(=O)C3=C(C)OCCS3)cc2)cc1 | inconclusive: 6.57 µM [inhibitor, partial curve, poor fit] | –
Cc1cccc(NC(=S)NNC(=O)CCn2cc(C)cn2)c1 | inconclusive: 0.0738 µM [inhibitor, full curve, poor fit] | –
COc1cc(SC)ccc1C(=O)NCCOc1ccccc1Cl | active: 0.738 µM | –

Quoted at random: 2 records from the list, in no set order.
Structure (SMILES) | Potency | activity change, negative = inhibition
COc1cccc2cc(C(C)N(CCCN3CCOCC3)C(=S)Nc3cc(C)ccc3C)oc12 (stereo not given) | inconclusive: 8.28 µM [inhibitor, single point] | –
CCOC(=O)C1=C(C)N=c2s/c(=C\c3cccn3C)c(=O)n2C1c1cccc(OC)c1OC (stereo not given) | inconclusive: 2.62 µM [inhibitor, full curve] | –

Further results.

Structure (SMILES) | Potency | activity change, negative = inhibition
O=C(Cn1cnc2c(NC(=O)OCc3ccccc3)ncnc21)NCc1ccccn1 | inconclusive: 0.117 µM [inhibitor, full curve, poor fit] | –
COc1ccc(CNC(=O)C(=O)NCCC2CCCCN2S(=O)(=O)c2ccc(C)cc2)cc1 (stereo not given) | inconclusive: 16.5 µM [inhibitor, single point] | –
O=C1CCCN1CCC(=O)N1CCCC(N2CCN(c3ccccc3F)CC2)C1 (stereo not given) | – | inactive: 24%
COc1cccc(C(=O)NC(=S)Nc2ccc(N3CCCC3)cc2)c1 | – | inactive: 40.8%
CCOc1ccc2oc(C(=O)NN3C(C)CCCC3C)c(C)c2c1 (stereo not given) | inconclusive: 10.4 µM [inhibitor, partial curve, poor fit] | –
Cc1ccc(C(=O)N/N=C/C2=Cc3ccccc3OC2C)cc1 (stereo not given) | inconclusive: 10.4 µM [inhibitor, single point] | –
CCn1cc(CNC(=O)C2CCC(=O)N(C3CCCCCC3)C2)cn1 (stereo not given) | – | inactive: -13.3%
COc1ccc(CCNC(=O)Cc2cc(OC)c(OC)cc2[N+](=O)[O-])cc1OC | inconclusive: 0.522 µM [inhibitor, full curve, poor fit] | –
Cc1ccc(-c2cn3cccc(C)c3n2)cc1 | inconclusive: 2.08 µM [inhibitor, full curve, poor fit] | –
O=C(Nc1ccc(N2CCOCC2)cc1)c1ccncc1 | inconclusive: 18.5 µM [inhibitor, single point] | –
CSc1nc(Cl)c(C#N)c(-c2ccc(C)cc2)n1 | – | inactive: 3.72%
Cc1ccc(-n2cccc2/C=C2\C(=N)N3N=C(C(C)C)SC3=NC2=O)cc1 | – | inactive: 17.4%
O=C(N/N=C/c1cc(Br)c(Br)o1)c1cc2ccccc2o1 | – | inactive: -10.5%
C=CC#CC[N+]1(CC#Cc2ccccc2)CCOCC1 | active: 4.15 µM | –
O=C(CSc1cn[nH]n1)Nc1ccccc1C(=O)O | – | inactive: 21.6%
Cc1cccc(C)c1NC(=S)N/N=C1\CC2CC=CC12 (stereo not given) | active: 9.28 µM | –
Cc1cccc(NC(=O)CN(C)C(=O)c2ccc3ccccc3n2)c1C | inconclusive: 0.0828 µM [inhibitor, full curve, poor fit] | –
Cc1noc(/C=C/N(C)C)c1S(=O)(=O)N(C)CC(=O)N1CCc2ccccc21 | inconclusive: 18.5 µM [inhibitor, single point] | –
O=C(Cn1cnc([N+](=O)[O-])n1)c1ccc(O)c(O)c1 | – | inactive: 14%
CCCCCCC(=O)N/N=C/c1c(O)n(C(C)CC)c(=S)[nH]c1=O (stereo not given) | inconclusive: 18.5 µM [inhibitor, single point] | –
O=C(CN1C(=O)CCSc2ccc(S(=O)(=O)N3CCOCC3)cc21)Nc1ccccc1Cl | – | inactive: -21.3%
NS(=O)(=O)c1ccc(NNC(=O)c2ccc(F)cc2F)cc1 | – | inactive: 17.2%
O=C(Nn1c(=S)[nH]c2ccccc2c1=O)c1ccncc1 | inconclusive: 10.4 µM [inhibitor, single point] | –
O=C(NC(=S)NNC(=O)c1cccs1)c1ccc(Br)o1 | inconclusive: 2.62 µM [inhibitor, single point] | –

Structure (SMILES) | Potency | activity change, negative = inhibition
CCc1ccc(NS(=O)(=O)c2ccc3[nH]cc(C(=O)NCC4CCCO4)c(=O)c3c2)cc1 (stereo not given) | inconclusive: 2.94 µM [inhibitor, single point] | –
COC(=O)C1=C(N)N(c2ccccc2F)C2=C(C(=O)CC(C)(C)C2)C1c1ccc(OC)c(OC)c1 (stereo not given) | inconclusive: 8.28 µM [inhibitor, partial curve, poor fit] | –
O=S(=O)(NC(=NC1CCCCC1)c1ccccc1)c1ccccc1 | inconclusive: 14.7 µM [inhibitor, single point] | –
CCC1(c2ccccc2)NC(=O)N(CC(=O)Nc2cccc(S(=O)(=O)N3CCCCC3)c2)C1=O (stereo not given) | inconclusive: 9.28 µM [inhibitor, partial curve, poor fit] | –
Clc1ccc(-c2cc(C3CCNCC3)[nH]n2)c(Cl)c1 | inconclusive: 13.1 µM [inhibitor, single point] | –
O=[N+]([O-])c1ccc(O)c(C(C#Cc2ccccc2)N2CCOCC2)c1 (stereo not given) | – | inactive: 9.83%
Cc1cc(C)nc(-n2nc(C)cc2NC(=O)C(C)C)n1 | inconclusive: 0.0657 µM [inhibitor, full curve, poor fit] | –
Cc1cc(C(=O)N/N=C/c2ccco2)c2ccccc2n1 | inconclusive: 0.0415 µM [inhibitor, full curve, poor fit] | –
CCOc1cccc2cc(-c3nc4ccc(C(=O)O)cc4[nH]3)c(=O)oc12 | – | inactive: 317%
COP(=O)(OC)/C(C=O)=N/Nc1ccc([N+](=O)[O-])cc1 | inconclusive: 4.15 µM [inhibitor, single point] | –
NS(=O)(=O)c1ccc(NC(=O)c2cccc(Cl)c2)cc1 | inconclusive: 18.5 µM [inhibitor, single point] | –
COc1ccc(OC)c(NC(=S)NCc2cccnc2)c1 | inconclusive: 0.0738 µM [inhibitor, full curve, poor fit] | –
O=C(CC1SC(=O)NC1=O)Oc1ccc(/C=N/NC(=O)c2ccccc2O)cc1 (stereo not given) | – | inactive: 0.352%
CCO[C@@H]1OC(C(=O)N2CCN(Cc3ccccc3)CC2)=C[C@H](c2ccccc2)[C@H]1CCCO | inconclusive: 10.4 µM [inhibitor, partial curve] | –
CC(=O)c1sc(-c2ccccc2)cc1NS(=O)(=O)c1ccccc1 | – | inactive: 0.905%
CCOc1ccccc1NC1c2ccccc2C(=O)N1c1cccnc1 (stereo not given) | inconclusive: 1.85 µM [inhibitor, full curve] | –
CCCNc1nc(C)nc2c1cnn2CCc1ccccc1 | – | inactive: -27.1%
CCN1CCN(CC(=O)N2N=C(c3cccs3)CC2c2ccc(F)cc2)C(=O)C1=O (stereo not given) | inconclusive: 18.5 µM [inhibitor, single point] | –
COc1ccc(C(=O)NCc2cn3c(C)csc3n2)cc1OC | inconclusive: 18.5 µM [inhibitor, single point] | –
Cc1ccccc1NC(=O)c1cccc(N2C(=O)C3C4CC(C(Br)C4Br)C3C2=O)c1 (stereo not given) | active: 9.28 µM | –
COc1ccc(CCN(C(=O)C(F)(F)F)C(C(=O)NC2CCCCC2)c2ccc(C)s2)cc1 (stereo not given) | active: 8.28 µM | –
O=C(CSc1nc2ccccc2o1)N1c2ccccc2Sc2ccc(Cl)cc21 | inconclusive: 1.85 µM [inhibitor, full curve, poor fit] | –

Filtered by structure, the entries above with four or more nitrogen atoms.
Structure (SMILES) | Potency | activity change, negative = inhibition
COc1ccc(C(c2nnnn2Cc2cccs2)N2CCN(c3ccc(F)cc3)CC2)cc1OC (stereo not given) | active: 13.1 µM | –
O=C(Nc1ccc(Cl)cc1)N1CCN(c2ncccn2)CC1 | inconclusive: 1.85 µM [inhibitor, full curve, poor fit] | –
COc1ccc(C(=O)NC(=S)NNC(=O)c2ccc3ccccc3n2)cc1 | inconclusive: 18.5 µM [inhibitor, partial curve, poor fit] | –
N/C(=N\OC(=O)c1ccncc1)c1cccc([N+](=O)[O-])c1 | – | inactive: -15.6%
Cc1cccc(NC(=S)NNC(=O)CCn2cc(C)cn2)c1 | inconclusive: 0.0738 µM [inhibitor, full curve, poor fit] | –
O=C(Cn1cnc2c(NC(=O)OCc3ccccc3)ncnc21)NCc1ccccn1 | inconclusive: 0.117 µM [inhibitor, full curve, poor fit] | –
O=C1CCCN1CCC(=O)N1CCCC(N2CCN(c3ccccc3F)CC2)C1 (stereo not given) | – | inactive: 24%
CCn1cc(CNC(=O)C2CCC(=O)N(C3CCCCCC3)C2)cn1 (stereo not given) | – | inactive: -13.3%
Cc1ccc(-n2cccc2/C=C2\C(=N)N3N=C(C(C)C)SC3=NC2=O)cc1 | – | inactive: 17.4%
O=C(CSc1cn[nH]n1)Nc1ccccc1C(=O)O | – | inactive: 21.6%
Cc1noc(/C=C/N(C)C)c1S(=O)(=O)N(C)CC(=O)N1CCc2ccccc21 | inconclusive: 18.5 µM [inhibitor, single point] | –
O=C(Cn1cnc([N+](=O)[O-])n1)c1ccc(O)c(O)c1 | – | inactive: 14%
CCCCCCC(=O)N/N=C/c1c(O)n(C(C)CC)c(=S)[nH]c1=O (stereo not given) | inconclusive: 18.5 µM [inhibitor, single point] | –
O=C(Nn1c(=S)[nH]c2ccccc2c1=O)c1ccncc1 | inconclusive: 10.4 µM [inhibitor, single point] | –
CCC1(c2ccccc2)NC(=O)N(CC(=O)Nc2cccc(S(=O)(=O)N3CCCCC3)c2)C1=O (stereo not given) | inconclusive: 9.28 µM [inhibitor, partial curve, poor fit] | –
Cc1cc(C)nc(-n2nc(C)cc2NC(=O)C(C)C)n1 | inconclusive: 0.0657 µM [inhibitor, full curve, poor fit] | –
CCCNc1nc(C)nc2c1cnn2CCc1ccccc1 | – | inactive: -27.1%
CCN1CCN(CC(=O)N2N=C(c3cccs3)CC2c2ccc(F)cc2)C(=O)C1=O (stereo not given) | inconclusive: 18.5 µM [inhibitor, single point] | –

Reference: PubChem BioAssay AID504834 (National Center for Advancing Translational Sciences (NCATS), 2011)
